# In the supplement of paper PMC12578635:
# ± gives the standard deviation of the averaged measurements. Some of the results follow. Most values come without repeats; read them as rough.
# Test system: RAW 264.7 macrophages infected with S. aureus JE2-lux
# Assay: host macrophage viability (CellTiter-Fluor) relative to DMSO vehicle; higher = more viable host cells
# Conditions: 10 µM; treatment time 4 h; gentamicin 50 µg/ml
row,Structure (SMILES),host macrophage viability
1,CCc1c(C)nc2ncnn2c1Sc1ccc(N(C)C)cc1,130%
2,O=C(Cc1ccc(Cl)cc1)Oc1coc(CSc2ncccn2)cc1=O,120%
3,Cn1c2ccc(F)cc2c2nnc(SCC(=O)N3CCCc4ccccc43)nc21,96%
4,COC(=O)CSc1ncnc2c1cnn2-c1ccc(F)cc1,122%
5,Cc1cccc2c(O)c(C(=O)NCCN3CCOCC3)cnc12,120%
6,CCCCc1nc(SCc2cccc(C(F)(F)F)c2)c2c(=O)n(C)c(=O)n(C)c2n1,122%
7,O=C(CSC1=NC2(CCCCC2)N=C1c1ccccc1)Nc1ccc2c(c1)OCCO2,129%
8,COc1ccc(Cl)cc1NC(=O)CSc1nc2c(c(=O)n1C)SC(C)C2 (configuration not stated),97.3%
9,COC(=O)c1sccc1N1Cc2ccncc2C1=O,122%
10,Cc1ccc(NC(=O)c2ccc3nnc(SCC(=O)NCc4ccc(Cl)cc4)n3c2)cc1,104%
11,COc1ccc(NC(=O)CSc2nnc3ccc(S(=O)(=O)c4ccccc4)nn23)cc1,96.1%
12,C=CCOc1ccccc1NC(=O)c1ccc2c(c1)nnn2C1CCCCC1,119%
13,Cc1ccc2nc(SCC(=O)NCc3ccccc3)nc(=O)n2c1,117%
14,CCN(CC)c1ncc(C(=O)Nc2ccc(OC)cc2OC)c2ccccc12,105%
15,NC(=O)c1cc2ccccc2o/c1=N\NC(=O)c1ccncc1,110 ± 11%
16,CC(C)c1ccc(NC(=O)CCn2c(=O)oc3ccccc32)cc1,116 ± 14%
17,COc1ccc(N(CC(=O)NCCc2ccccc2)C(=O)c2csnn2)cc1,127%
18,CCC1CCCCN1C(=O)Cn1nc(-c2cc(C)oc2C)cc(N)c1=O (configuration not stated),106%
19,COc1ccc(C(=O)Oc2coc(CSc3nc(C)cs3)cc2=O)cc1OC,101%
20,O=C(CSc1nnc2n(Cc3ccccc3)c3ccccc3n12)N1CCc2ccccc21,117%
21,O=C(Nc1ccc(-c2ccc(NC(=O)c3cccs3)cc2)cc1)c1cccs1,134%
22,CCCCOC(=O)Nc1[nH]c(C)c(C(=O)OCC)c1C,130%
23,Brc1cccc2sc(N3CCCC3)nc12,110.5 ± 0.21%
24,CCC(=O)Nc1cccnc1-c1ccc(C(=O)Nc2ccc(OC)c(Cl)c2)cc1,115%
25,CCS(=O)(=O)Nc1ccc(-c2nnc(SCC(=O)Nc3cccc(O)c3)o2)cc1,106%
26,Cc1cc2nc(C3CCN(C(=S)Nc4ccc(F)cc4)CC3)[nH]c2cc1C,101%

row,Structure (SMILES),host macrophage viability
1,O=C(CSc1cnc2ccccc2n1)NCc1ccc2c(c1)OCO2,118%
2,Cn1c(=O)n(CC(=O)N2CCCC2)c(=O)c2cc(S(=O)(=O)Nc3cccc4c3CCCC4)ccc21,103%
3,O=C1CCc2cc(S(=O)(=O)NC3CCN(Cc4ccccc4)C3)ccc2N1 (configuration not stated),120%
4,O=C(Nc1c(C(=O)Nc2ccc3c(c2)OCCO3)oc2ccccc12)c1ccccc1C(F)(F)F,103%
5,Cc1cc2ccccc2n2c(=O)n(CCNC(=O)c3[nH]ncc3Br)nc12,106%
6,CCOc1ccccc1-n1nnc(C(=O)Nc2ccc(C(=O)O)cc2)c1C,113%
7,CCOc1ccc2ncc3c(-c4ccccc4)nn(CC(=O)Nc4cccc(F)c4)c3c2c1,127%
8,COc1ccc(S(=O)(=O)c2cn(CC(=O)Nc3ccccc3)c3ccc(Cl)cc3c2=O)cc1,126%
9,Cc1cc2c(=O)n(Cc3ccco3)c(SCc3cc(O)[nH]n3)nc2s1,114%
10,CCOC(=O)C1=C(N)Oc2c(oc(CO)cc2=O)C1c1ccccc1 (configuration not stated),126%
11,O=S(=O)(NCCCc1nc2cc3ccccc3cc2[nH]1)c1ccc2c(c1)OCCO2,122%
12,CC1CCCN(S(=O)(=O)c2ccc(C(=O)Nc3nc4c(s3)CSc3ccccc3-4)cc2)C1 (configuration not stated),117%
13,Cc1ccc(Oc2ccc(CNC(=O)C(C)N3C(=O)NC(C)(C)C3=O)cc2)cc1 (configuration not stated),98.5%
14,Cc1nn(C)c(C)c1CNC(=O)c1cc2c(-c3cccs3)nn(-c3ccccc3)c2n1C,97.6%
15,Cc1ccc(CNC(=O)CCCn2c(=S)[nH]c3ccc(Br)cc3c2=O)cc1,129%
16,Cc1cc(C)c(NC(=O)CSC2=C(C#N)C(c3ccco3)CC(=O)N2)c(C)c1 (configuration not stated),119%
17,O=C(NCc1ccnc(N2CCCCC2)c1)Nc1cccc(Br)c1,115%
18,Cc1c(C(=O)NC(c2ccccc2)c2cccnc2)[nH]c2ccccc12 (configuration not stated),125%
19,O=C(NCCC1=CCCCC1)C(=O)Nc1ccc(F)c(F)c1,114%
20,Cc1cc(=O)[nH]c2ccc(S(=O)(=O)Nc3ccc(Br)cc3)cc12,112%
21,Cc1cc(F)ccc1S(=O)(=O)Oc1ccc2oc3ccccc3c2c1,121%
22,O=c1n(Cn2nnc3ccccc32)nc(C(F)(F)F)c2cccn12,95.9%
23,Cc1cc(C)n2nc(C(=O)NCc3ccc(N4CCCC4=O)cc3)cc2n1,127%
24,CC(=O)c1ccc(Nc2nc3c(S(=O)(=O)c4ccccc4)nnn3c3ccc(Cl)cc23)cc1,136%
25,N#Cc1c(N)nc(SCc2ccccc2)c(C#N)c1C1CCCCC1,107%
26,CC1=C(C(=O)OCc2ccccc2)C(c2cccc(Br)c2)NC(=S)N1 (configuration not stated),106%

row,Structure (SMILES),host macrophage viability
1,Cc1cccc(C)c1NC(=O)C(C)n1cnc2onc(-c3ccc(Cl)cc3)c2c1=O (configuration not stated),117%
2,CC(=O)Nc1ccc2c(=O)cc(-c3ccccc3F)oc2c1,109%
3,Cc1ccc(-c2nc3n(CC(=O)Nc4ccc(Br)cc4)c4c(c(=O)n3n2)CCC4)cc1,127%
4,O=C(CSc1nc(=O)n2cc(Cl)ccc2n1)NC1CCCCC1,107%
5,O=C(COc1ccc2ccccc2c1)NCC1COC2(CCCC2)O1 (configuration not stated),100%
6,COc1cccc(C2C3=C(CCCC3=O)Nc3nc(SC(C)C)[nH]c(=O)c32)c1 (configuration not stated),129%
7,CCOc1ccc(NC(=O)CN2C(=O)C(c3ccc(OC)cc3)=NC23CCCCC3)cc1,125%
8,N#Cc1ccc(CSc2ncccc2C(=O)O)cc1,126%
9,COc1ccc(CCn2c(C)c(C)n3c4c(=O)n(CC(N)=O)c(=O)n(C)c4nc23)cc1OC,114%
10,Cc1ccc(NC(=O)CSCC(=O)NCC2OCCc3ccccc32)cc1C (configuration not stated),110%
11,Cc1ccc(-c2nc(CCNC(=O)CCc3cc(Cl)no3)n[nH]2)cc1,121%
12,COc1cc(OC)c(NC(=O)C(C)Sc2nnc(-c3ccncc3)o2)cc1Cl (configuration not stated),83.5%
13,COC(=O)c1ccc(NC(=O)CSc2ncnc3sc4c(c23)CCC4)cc1,116%
14,O=C(NC(=S)Nc1ccc(S(=O)(=O)N2CCc3ccccc32)cc1)c1cccs1,118%
15,Cc1ccc(C)c(S(=O)(=O)Nc2cc(Sc3nc[nH]n3)c(O)c3ccccc23)c1,112%
16,CN(C)CCCN1C(=O)C(O)=C(C(=O)c2ccncc2)C1c1cccc(F)c1 (configuration not stated),110%
17,COc1ccc(N2CCn3c(nc4ccccc43)C2)cc1NC(=O)Nc1ccccc1,145%
18,O=C(c1cccs1)N1CCN=C1SCc1ccc(Cl)cc1,96.8%
19,CCCn1c(SCC(=O)Nc2ccccc2CC)nc2c(oc3ccccc32)c1=O,126%
20,CCOc1ccc2cc(C#N)c(SCC(=O)Nc3ccccc3C(F)(F)F)nc2c1,97.4%
21,COc1cc(C(=O)Oc2ccc3oc(=O)cc(-c4cc5ccccc5o4)c3c2)cc(OC)c1OC,120%
22,CCOC(=O)c1sc(NC(=O)CSc2nc3c(=O)n(C)c(=O)n(C)c3n2C)nc1C,110%
23,CN(C)CCN(C(=O)C1CC(=O)Nc2ccccc21)C1CCCCC1 (configuration not stated),105%
24,Cc1oc2ncnc(OC3CCN4Cc5ccccc5N=C34)c2c1C (configuration not stated),123%
25,CC1CC(NC(=O)C(=O)c2c[nH]c3ccccc23)CC(C)(C)C1 (configuration not stated),117 ± 32%
26,Cc1cc(SCC(=O)OCc2ccccc2)nc(=O)[nH]1,122%

row,Structure (SMILES),host macrophage viability
1,Cc1ccc(NC(=O)c2cnn3c(=O)c4c([nH]c23)CCC4)cc1,105%
2,O=C(Nc1ccc(F)c(Cl)c1)C(=O)Nc1ccc2c(c1)OCCO2,101%
3,Cc1ccc(N2C(=O)SC(Nc3ccccc3C(=O)O)C2=O)cc1C (configuration not stated),99.3%
4,COc1ccccc1NC(=O)N1CCCC1C(=O)Nc1cccc2ccccc12 (configuration not stated),107%
5,Cc1ccc2sc(NC(=O)c3ccc(N4C(=O)CCC4=O)cc3)nc2c1C,120%
6,Cc1cc(C)n(-c2cc(N3CCN(c4cc(Cl)ccc4C)CC3)ncn2)n1,94.3%
7,Cc1cc(NC(=O)c2cccc(C(F)(F)F)c2)nc2c1c(=O)oc1ccccc12,104%
8,Cc1ccc(-c2csc(-n3nc(C)c(CC(=O)N4CCN(c5ccc(F)cc5)CC4)c3O)n2)cc1,117%
9,CCOC(=O)c1[nH]c2ccccc2c1NC(=S)Nc1cccc(C(F)(F)F)c1,105%
10,O=C1c2ccccc2-c2nn(C(=O)c3ccccc3)c3cccc1c23,128%
11,Cc1cc2cc3c(N)c(C(=O)Nc4nonc4C)sc3nc2cc1C,126%
12,CC(C)(C)n1nc2c(c1NC(=O)COc1ccccc1)CS(=O)(=O)C2,109%
13,O=C(Nc1ccc(F)cc1)N1CCC(c2nc3ccccc3o2)CC1,107%
14,Cc1cc(Cl)ccc1Nc1nc(N)c(C(=O)c2c[nH]c3ccccc23)s1,133%
15,Cc1ccc(CNC(=O)c2ccc(Cn3c(=O)[nH]c4ccsc4c3=O)cc2)cc1,125%
16,Cc1cc(NC(=O)CN2CC3CC(C2)c2cccc(=O)n2C3)nc2c1c(=O)oc1ccccc12 (configuration not stated),121%
17,COc1ccc(C2CC(=O)c3cnc(NC4OC(=O)c5ccccc54)nc3C2)cc1OC (configuration not stated),109%
18,CCOC(=O)c1c(NC(=S)Nc2c(C)n(C)n(-c3ccccc3)c2=O)sc2c1CCCC2,107%
19,O=C(Nc1cccc(F)c1)c1cccc(-c2ccc(N3CCCCC3)nn2)c1,110%
20,O=C(c1ccc(S(=O)(=O)N2CCCCC2)cc1)N1CCN=C1SCc1ccc([N+](=O)[O-])cc1,91.6%
21,COc1ccc(NC(=O)Cn2cc(C(=O)c3ccc(F)cc3)c(=O)c3ccccc32)c(OC)c1,127%
22,Cc1cccc(NC(=O)c2sc3nc(-c4ccc(F)cc4)cn3c2C)c1C,126%
23,Cc1nnc2ccc(-n3ncc4c3NC(=O)CC4c3ccc(OCc4ccc(F)cc4)cc3)nn12 (configuration not stated),104%
24,Cc1ccc(C)c(N(C(=O)c2csnn2)C(C(=O)NC2CCCCC2)c2ccccn2)c1 (configuration not stated),108%

# 30 entries from above, with tabs:
row	Structure (SMILES)	host macrophage viability
10	Cc1ccc(NC(=O)CSCC(=O)NCC2OCCc3ccccc32)cc1C (configuration not stated)	110%
11	Cc1ccc(-c2nc(CCNC(=O)CCc3cc(Cl)no3)n[nH]2)cc1	121%
12	COc1cc(OC)c(NC(=O)C(C)Sc2nnc(-c3ccncc3)o2)cc1Cl (configuration not stated)	83.5%
13	COC(=O)c1ccc(NC(=O)CSc2ncnc3sc4c(c23)CCC4)cc1	116%
14	O=C(NC(=S)Nc1ccc(S(=O)(=O)N2CCc3ccccc32)cc1)c1cccs1	118%
15	Cc1ccc(C)c(S(=O)(=O)Nc2cc(Sc3nc[nH]n3)c(O)c3ccccc23)c1	112%
16	CN(C)CCCN1C(=O)C(O)=C(C(=O)c2ccncc2)C1c1cccc(F)c1 (configuration not stated)	110%
17	COc1ccc(N2CCn3c(nc4ccccc43)C2)cc1NC(=O)Nc1ccccc1	145%
18	O=C(c1cccs1)N1CCN=C1SCc1ccc(Cl)cc1	96.8%
19	CCCn1c(SCC(=O)Nc2ccccc2CC)nc2c(oc3ccccc32)c1=O	126%
20	CCOc1ccc2cc(C#N)c(SCC(=O)Nc3ccccc3C(F)(F)F)nc2c1	97.4%
21	COc1cc(C(=O)Oc2ccc3oc(=O)cc(-c4cc5ccccc5o4)c3c2)cc(OC)c1OC	120%
22	CCOC(=O)c1sc(NC(=O)CSc2nc3c(=O)n(C)c(=O)n(C)c3n2C)nc1C	110%
23	CN(C)CCN(C(=O)C1CC(=O)Nc2ccccc21)C1CCCCC1 (configuration not stated)	105%
24	Cc1oc2ncnc(OC3CCN4Cc5ccccc5N=C34)c2c1C (configuration not stated)	123%
25	CC1CC(NC(=O)C(=O)c2c[nH]c3ccccc23)CC(C)(C)C1 (configuration not stated)	117 ± 32%
26	Cc1cc(SCC(=O)OCc2ccccc2)nc(=O)[nH]1	122%
1	Cc1ccc(NC(=O)c2cnn3c(=O)c4c([nH]c23)CCC4)cc1	105%
2	O=C(Nc1ccc(F)c(Cl)c1)C(=O)Nc1ccc2c(c1)OCCO2	101%
3	Cc1ccc(N2C(=O)SC(Nc3ccccc3C(=O)O)C2=O)cc1C (configuration not stated)	99.3%
4	COc1ccccc1NC(=O)N1CCCC1C(=O)Nc1cccc2ccccc12 (configuration not stated)	107%
5	Cc1ccc2sc(NC(=O)c3ccc(N4C(=O)CCC4=O)cc3)nc2c1C	120%
6	Cc1cc(C)n(-c2cc(N3CCN(c4cc(Cl)ccc4C)CC3)ncn2)n1	94.3%
7	Cc1cc(NC(=O)c2cccc(C(F)(F)F)c2)nc2c1c(=O)oc1ccccc12	104%
8	Cc1ccc(-c2csc(-n3nc(C)c(CC(=O)N4CCN(c5ccc(F)cc5)CC4)c3O)n2)cc1	117%
9	CCOC(=O)c1[nH]c2ccccc2c1NC(=S)Nc1cccc(C(F)(F)F)c1	105%
10	O=C1c2ccccc2-c2nn(C(=O)c3ccccc3)c3cccc1c23	128%
11	Cc1cc2cc3c(N)c(C(=O)Nc4nonc4C)sc3nc2cc1C	126%
12	CC(C)(C)n1nc2c(c1NC(=O)COc1ccccc1)CS(=O)(=O)C2	109%
13	O=C(Nc1ccc(F)cc1)N1CCC(c2nc3ccccc3o2)CC1	107%
